No constants are given. Whether binding was seen depends on the method and setting. In cells and extracts the contact can be indirect. A yes stands for co-enrichment or nearness to the bait. Other partners may have been found.

Chains of the proteins cited; added tags and fusions are not shown. Lines headed by an entry give the natural chain unless they say otherwise; changes in a name come on top.
UniProt A1ZAW0: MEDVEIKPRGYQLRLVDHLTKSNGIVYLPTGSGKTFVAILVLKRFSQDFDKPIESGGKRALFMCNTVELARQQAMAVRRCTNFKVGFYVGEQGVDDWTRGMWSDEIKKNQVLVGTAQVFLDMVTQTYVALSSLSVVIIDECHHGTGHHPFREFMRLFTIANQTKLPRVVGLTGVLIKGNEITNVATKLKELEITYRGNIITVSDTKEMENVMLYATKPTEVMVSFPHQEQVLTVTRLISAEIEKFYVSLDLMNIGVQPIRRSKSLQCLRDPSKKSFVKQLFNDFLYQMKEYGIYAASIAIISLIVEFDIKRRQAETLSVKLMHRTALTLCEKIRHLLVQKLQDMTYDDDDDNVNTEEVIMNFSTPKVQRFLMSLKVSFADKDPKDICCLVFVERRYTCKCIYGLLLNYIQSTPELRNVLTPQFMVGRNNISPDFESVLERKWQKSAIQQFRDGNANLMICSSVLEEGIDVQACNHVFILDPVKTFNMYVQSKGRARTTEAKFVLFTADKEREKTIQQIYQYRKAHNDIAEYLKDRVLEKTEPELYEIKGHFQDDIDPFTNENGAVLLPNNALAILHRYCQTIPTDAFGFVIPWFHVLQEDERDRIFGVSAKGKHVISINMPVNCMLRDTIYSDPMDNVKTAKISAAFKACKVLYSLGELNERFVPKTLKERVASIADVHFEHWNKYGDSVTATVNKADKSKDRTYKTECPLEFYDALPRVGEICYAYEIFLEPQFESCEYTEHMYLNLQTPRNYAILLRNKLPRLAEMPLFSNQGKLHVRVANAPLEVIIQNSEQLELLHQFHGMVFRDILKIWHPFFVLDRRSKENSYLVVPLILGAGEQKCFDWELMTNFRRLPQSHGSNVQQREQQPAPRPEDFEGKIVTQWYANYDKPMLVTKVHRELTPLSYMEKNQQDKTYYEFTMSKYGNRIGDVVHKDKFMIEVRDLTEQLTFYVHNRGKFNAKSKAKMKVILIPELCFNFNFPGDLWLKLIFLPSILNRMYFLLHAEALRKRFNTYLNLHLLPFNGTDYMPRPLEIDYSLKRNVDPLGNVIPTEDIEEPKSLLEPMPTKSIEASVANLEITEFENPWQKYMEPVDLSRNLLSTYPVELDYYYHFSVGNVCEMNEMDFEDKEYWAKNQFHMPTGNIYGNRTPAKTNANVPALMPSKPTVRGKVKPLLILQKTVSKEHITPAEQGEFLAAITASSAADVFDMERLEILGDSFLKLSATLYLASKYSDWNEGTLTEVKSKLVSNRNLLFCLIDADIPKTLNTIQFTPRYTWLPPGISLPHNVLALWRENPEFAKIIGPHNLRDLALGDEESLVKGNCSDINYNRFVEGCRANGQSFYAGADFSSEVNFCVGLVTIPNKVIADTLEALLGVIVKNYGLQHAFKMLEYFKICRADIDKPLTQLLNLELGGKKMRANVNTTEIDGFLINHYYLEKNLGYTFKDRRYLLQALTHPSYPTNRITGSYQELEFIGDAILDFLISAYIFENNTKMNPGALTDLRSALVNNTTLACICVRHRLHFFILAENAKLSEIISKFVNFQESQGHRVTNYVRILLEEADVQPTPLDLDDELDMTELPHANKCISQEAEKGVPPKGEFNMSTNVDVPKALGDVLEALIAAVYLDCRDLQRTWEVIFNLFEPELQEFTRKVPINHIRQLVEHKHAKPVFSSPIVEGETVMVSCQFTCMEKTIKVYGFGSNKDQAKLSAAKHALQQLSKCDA
UniProt Q9VN21: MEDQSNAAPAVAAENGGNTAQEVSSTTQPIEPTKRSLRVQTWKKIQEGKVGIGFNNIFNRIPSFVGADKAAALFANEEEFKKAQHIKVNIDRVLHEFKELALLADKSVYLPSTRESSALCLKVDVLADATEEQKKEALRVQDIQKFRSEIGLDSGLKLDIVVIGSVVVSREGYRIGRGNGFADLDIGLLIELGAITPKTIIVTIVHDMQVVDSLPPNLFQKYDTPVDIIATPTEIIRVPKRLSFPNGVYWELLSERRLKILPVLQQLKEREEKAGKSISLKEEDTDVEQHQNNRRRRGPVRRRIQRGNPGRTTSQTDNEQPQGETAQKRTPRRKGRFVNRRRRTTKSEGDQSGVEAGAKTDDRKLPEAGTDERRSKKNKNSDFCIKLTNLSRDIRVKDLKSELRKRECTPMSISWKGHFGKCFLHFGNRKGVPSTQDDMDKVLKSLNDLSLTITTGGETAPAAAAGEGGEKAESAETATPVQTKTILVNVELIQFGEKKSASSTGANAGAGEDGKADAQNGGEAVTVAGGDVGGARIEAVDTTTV
UniProt P28668: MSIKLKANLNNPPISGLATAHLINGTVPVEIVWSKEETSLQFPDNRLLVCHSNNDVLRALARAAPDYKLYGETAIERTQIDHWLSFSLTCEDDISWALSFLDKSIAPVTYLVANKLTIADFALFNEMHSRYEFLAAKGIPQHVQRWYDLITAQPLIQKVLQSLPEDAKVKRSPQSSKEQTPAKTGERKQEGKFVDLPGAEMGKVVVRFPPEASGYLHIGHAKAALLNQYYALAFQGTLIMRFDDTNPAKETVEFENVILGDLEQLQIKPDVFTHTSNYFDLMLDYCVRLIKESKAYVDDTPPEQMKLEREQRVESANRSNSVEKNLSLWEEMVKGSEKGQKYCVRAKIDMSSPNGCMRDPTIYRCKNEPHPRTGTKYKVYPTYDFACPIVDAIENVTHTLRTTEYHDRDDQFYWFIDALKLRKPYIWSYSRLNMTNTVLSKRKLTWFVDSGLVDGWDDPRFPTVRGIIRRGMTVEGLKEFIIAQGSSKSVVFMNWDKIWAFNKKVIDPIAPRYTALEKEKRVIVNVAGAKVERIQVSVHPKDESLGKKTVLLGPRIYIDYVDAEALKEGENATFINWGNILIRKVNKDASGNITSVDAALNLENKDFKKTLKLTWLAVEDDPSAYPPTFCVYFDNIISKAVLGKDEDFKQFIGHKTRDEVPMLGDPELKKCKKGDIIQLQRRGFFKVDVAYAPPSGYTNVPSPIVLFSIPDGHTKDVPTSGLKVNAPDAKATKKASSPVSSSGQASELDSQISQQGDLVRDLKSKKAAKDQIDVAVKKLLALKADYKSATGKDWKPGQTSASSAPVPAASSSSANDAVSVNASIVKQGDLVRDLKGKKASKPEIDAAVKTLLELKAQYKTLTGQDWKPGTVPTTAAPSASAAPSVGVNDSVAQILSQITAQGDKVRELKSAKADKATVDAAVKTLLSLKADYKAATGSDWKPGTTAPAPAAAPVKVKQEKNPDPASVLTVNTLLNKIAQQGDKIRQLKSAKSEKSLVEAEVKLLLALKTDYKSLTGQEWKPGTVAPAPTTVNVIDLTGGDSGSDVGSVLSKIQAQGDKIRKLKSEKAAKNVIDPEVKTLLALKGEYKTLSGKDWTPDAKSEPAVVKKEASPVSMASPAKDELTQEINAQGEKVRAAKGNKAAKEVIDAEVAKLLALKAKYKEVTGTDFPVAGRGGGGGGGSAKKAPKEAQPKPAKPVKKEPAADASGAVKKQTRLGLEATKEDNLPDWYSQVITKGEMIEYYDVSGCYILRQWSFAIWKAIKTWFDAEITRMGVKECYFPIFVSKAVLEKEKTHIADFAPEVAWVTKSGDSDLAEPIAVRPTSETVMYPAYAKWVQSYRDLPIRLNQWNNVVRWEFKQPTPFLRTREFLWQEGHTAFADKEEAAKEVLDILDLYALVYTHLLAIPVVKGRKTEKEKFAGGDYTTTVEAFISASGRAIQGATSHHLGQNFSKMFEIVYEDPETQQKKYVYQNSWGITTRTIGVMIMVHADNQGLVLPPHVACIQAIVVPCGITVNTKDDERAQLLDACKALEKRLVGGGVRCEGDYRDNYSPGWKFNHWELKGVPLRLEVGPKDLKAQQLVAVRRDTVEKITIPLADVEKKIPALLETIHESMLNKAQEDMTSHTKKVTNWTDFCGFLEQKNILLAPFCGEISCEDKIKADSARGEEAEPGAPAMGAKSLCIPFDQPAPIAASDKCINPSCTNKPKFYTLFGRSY
UniProt Q9I7T7: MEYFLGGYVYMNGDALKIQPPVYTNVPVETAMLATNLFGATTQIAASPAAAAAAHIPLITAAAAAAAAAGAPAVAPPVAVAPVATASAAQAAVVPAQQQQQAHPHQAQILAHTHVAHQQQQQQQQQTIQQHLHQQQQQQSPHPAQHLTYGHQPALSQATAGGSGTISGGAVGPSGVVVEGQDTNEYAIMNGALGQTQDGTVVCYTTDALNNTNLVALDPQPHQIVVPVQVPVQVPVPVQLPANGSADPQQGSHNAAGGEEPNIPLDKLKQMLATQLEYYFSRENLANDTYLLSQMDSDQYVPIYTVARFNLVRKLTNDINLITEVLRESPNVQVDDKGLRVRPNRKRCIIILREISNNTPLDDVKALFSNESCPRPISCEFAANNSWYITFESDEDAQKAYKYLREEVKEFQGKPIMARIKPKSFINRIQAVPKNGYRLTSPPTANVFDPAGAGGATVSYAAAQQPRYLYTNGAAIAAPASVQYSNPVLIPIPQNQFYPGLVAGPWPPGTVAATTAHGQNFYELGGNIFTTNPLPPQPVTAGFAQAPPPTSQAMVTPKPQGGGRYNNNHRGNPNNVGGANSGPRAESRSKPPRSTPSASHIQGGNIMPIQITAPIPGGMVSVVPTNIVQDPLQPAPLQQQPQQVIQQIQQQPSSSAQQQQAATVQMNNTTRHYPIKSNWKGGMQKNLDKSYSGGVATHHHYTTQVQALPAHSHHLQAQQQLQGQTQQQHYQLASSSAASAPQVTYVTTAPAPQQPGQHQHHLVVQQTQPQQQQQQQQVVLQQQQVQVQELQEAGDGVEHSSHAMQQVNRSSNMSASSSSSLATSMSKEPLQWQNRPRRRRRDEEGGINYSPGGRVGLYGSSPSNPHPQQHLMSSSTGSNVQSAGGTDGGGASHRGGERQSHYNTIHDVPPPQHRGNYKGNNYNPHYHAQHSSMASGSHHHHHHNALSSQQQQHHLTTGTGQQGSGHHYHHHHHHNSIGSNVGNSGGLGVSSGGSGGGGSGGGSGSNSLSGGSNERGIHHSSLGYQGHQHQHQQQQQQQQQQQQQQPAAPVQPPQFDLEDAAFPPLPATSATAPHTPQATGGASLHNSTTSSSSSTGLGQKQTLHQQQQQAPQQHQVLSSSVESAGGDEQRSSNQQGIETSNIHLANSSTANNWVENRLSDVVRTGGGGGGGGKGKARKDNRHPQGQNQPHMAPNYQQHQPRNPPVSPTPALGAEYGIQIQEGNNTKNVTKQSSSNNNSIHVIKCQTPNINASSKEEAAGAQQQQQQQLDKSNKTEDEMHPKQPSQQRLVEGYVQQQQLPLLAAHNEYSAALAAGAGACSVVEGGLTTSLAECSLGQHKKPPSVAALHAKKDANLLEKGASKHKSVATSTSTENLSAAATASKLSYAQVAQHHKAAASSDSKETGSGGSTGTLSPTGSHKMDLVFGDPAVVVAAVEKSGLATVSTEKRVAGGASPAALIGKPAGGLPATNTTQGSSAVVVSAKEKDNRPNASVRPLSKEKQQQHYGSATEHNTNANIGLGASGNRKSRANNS
UniProt P19109: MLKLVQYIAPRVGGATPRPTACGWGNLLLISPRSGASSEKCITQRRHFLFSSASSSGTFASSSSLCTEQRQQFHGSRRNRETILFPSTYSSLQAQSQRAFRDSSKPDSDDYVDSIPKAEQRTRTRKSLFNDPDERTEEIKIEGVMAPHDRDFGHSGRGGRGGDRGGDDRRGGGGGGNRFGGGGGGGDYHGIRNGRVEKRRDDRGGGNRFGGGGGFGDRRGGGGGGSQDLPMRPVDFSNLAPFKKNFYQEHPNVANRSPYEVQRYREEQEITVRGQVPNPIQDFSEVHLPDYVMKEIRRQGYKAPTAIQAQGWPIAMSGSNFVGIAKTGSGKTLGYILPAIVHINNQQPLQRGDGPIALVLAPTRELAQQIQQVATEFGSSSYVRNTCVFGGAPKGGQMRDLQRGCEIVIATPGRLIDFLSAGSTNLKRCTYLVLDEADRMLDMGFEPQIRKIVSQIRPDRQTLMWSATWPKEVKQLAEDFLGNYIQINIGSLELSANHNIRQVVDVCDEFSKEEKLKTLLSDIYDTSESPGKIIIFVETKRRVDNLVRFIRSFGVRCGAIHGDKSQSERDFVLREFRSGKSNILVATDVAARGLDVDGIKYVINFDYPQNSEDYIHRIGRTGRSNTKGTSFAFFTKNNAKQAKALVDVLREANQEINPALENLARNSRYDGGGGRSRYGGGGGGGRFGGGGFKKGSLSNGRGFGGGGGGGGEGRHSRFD

First the molecules themselves.
B1: R2D2 (protein, UniProt Q9VLW8 1-311)
chain: MDNKSAVSALQEFCARTQINLPTYSFIPGEDGGYVCKVELLEIEALGNGRSKRDAKHLAASNILRKIQLLPGIHGLMKDSTVGDLDEELTNLNRDMVKELRDYCVRREMPLPCIEVVQQSGTPSAPEFVACCSVASIVRYGKSDKKKDARQRAAIEMLALISSNSDNLRPDQMQVASTSKLKVVDMEESMEELEALRRKKFTTYWELKEAGSVDHTGMRLCDRHNYFKNFYPTLKKEAIEAINSDEYESSKDKAMDVMSSLKITPKISEVESSSLVPLLSVELNCAFDVVLMAKETDIYDHIIDYFRTMLI
B2: Exuperantia (Exu) (protein, UniProt P28750 1-532)
chain: MVADNIDAGVAIAVADQSSSPVGDKVELPAGNYILVGVDIDTTGRRLMDEIVQLAAYTPTDHFEQYIMPYMNLNPAARQRHQVRVISIGFYRMLKSMQTYKIIKSKSEIAALKDFLNWLEQLKTKAGPSSDGIVLIYHEERKFIPYMILESLKKYGLLERFTASVKSFANSINLAKASIGDANIKNYSLRKLSKILSTTKEEDAACSASTSGSGSGLGSGSSMVSDSVSISPRDSTVTNGDDKQSSKNAVQGKRELFDGNASVRAKLAFDVALQLSNSDGKPEPKSSEALENMFNAIRPFAKLVVSDVLELDIQIENLERQNSFRPVFLNYFKTTLYHRVRAVKFRIVLAENGFDLNTLSAIWAEKNIEGLDIALQSIGRLKSKDKAELLELLDSYFDPKKTTVKPVVKGNSNNNNNYRRRNRRGGRQSVKDARPSSSPSASTEFGAGGDKSRSVSSLPDSTTKTPSPNKPRMHRKRNSRQSLGATPNGLKVAAEISSSGVSELNNSAPPAVTISPVVAQPSPTPVAITASN
B3: Arc1 (protein, UniProt Q7K1U0 1-254)
chain: MAQLTQMTNEQLRELIEAVRAAAVGAAGSAAAAGGADASRGKGNFSACTHSFGGTRDHDVVEEFIGNIETYKDVEGISDENALKGISLLFYGMASTWWQGVRKEATTWKEAIALIREHFSPTKPAYQIYMEFFQNKQDDHDPIDTFVIQKRALLAQLPSGRHDEETELDLLFGLLNIKYRKHISRHSVHTFKDLLEQGRIIEHNNQEDEEQLATAKNTRGSKRTTRCTYCSFRGHTFDNCRKRQKDRQEEQHEE
B4: NorpA (protein, UniProt P13217 1-1095)
chain: MTKKYEFDWIIPVPPELTTGCVFDRWFENEKETKENDFERDALFKVDEYGFFLYWKSEGRDGDVIELCQVSDIRAGGTPKDPKILDKVTKKNGTNIPELDKRSLTICSNTDYINITYHHVICPDAATAKSWQKNLRLITHNNRATNVCPRVNLMKHWMRLSYCVEKSGKIPVKTLAKTFASGKTEKLVYTCIKDAGLPDDKNATMTKEQFTFDKFYALYHKVCPRNDIEELFTSITKGKQDFISLEQFIQFMNDKQRDPRMNEILYPLYEEKRCTEIINDYELDEEKKKNVQMSLDGFKRYLMSDENAPVFLDRLDFYMEMDQPLAHYYINSSHNTYLSGRQIGGKSSVEMYRQTLLAGCRCVELDCWNGKGEDEEPIVTHGHAYCTEILFKDCIQAIADCAFVSSEYPVILSFENHCNRAQQYKLAKYCDDFFGDLLLKEPLPDHPLDPGLPLPPPCKLKRKILIKNKRMKPEVEKVELELWLKGELKTDDDPEEDASAGKPPEAAAAPAPAPEAAAAAEGAAEGGGGAEAEAAAANYSGSTTNVHPWLSSMVNYAQPIKFQGFDKAIEKNIAHNMSSFAESAGMNYLKQSSIDFVNYNKRQMSRIYPKGTRADSSNYMPQVFWNAGCQMVSLNFQSSDLPMQLNQGKFEYNGGCGYLLKPDFMRRADKDFDPFADAPVDGVIAAQCSVKVIAGQFLSDKKVGTYVEVDMFGLPSDTVKKEFRTRLVANNGLNPVYNEDPFVFRKVVLPDLAVLRFGVYEESGKILGQRILPLDGLQAGYRHVSLRTEANFPMSLPMLFVNIELKIYVPDGFEDFMAMLSDPRGFAGAAKQQNEQMKALGIEEQSGGAARDAGKAKEEEKKEPPLVFEPVTLESLRQEKGFQKVGKKQIKELDTLRKKHAKERTSVQKTQNAAIDKLIKGKSKDDIRNDANIKNSINDQTKQWTDMIARHRKEEWDMLRQHVQDSQDAMKALMLTVQAAQIKQLEDRHARDIKDLNAKQAKMSADTAKEVQNDKTLKTKNEKDRRLREKRQNNVKRFMEEKKQIGVKQGRAMEKLKLAHSKQIEEFSTDVQKLMDMYKIEEEAYKTQGKTEFYA
B5: Argonaute2 (AGO2) (protein, UniProt Q9VUQ5 1-1214)
chain: MGKKDKNKKGGQDSAAAPQPQQQQKQQQQRQQQPQQLQQPQQLQQPQQLQQPQQQQQQQPHQQQQQSSRQQPSTSSGGSRASGFQQGGQQQKSQDAEGWTAQKKQGKQQVQGWTKQGQQGGHQQGRQGQDGGYQQRPPGQQQGGHQQGRQGQEGGYQQRPPGQQQGGHQQGRQGQEGGYQQRPSGQQQGGHQQGRQGQEGGYQQRPPGQQQGGHQQGRQGQEGGYQQRPSGQQQGGHQQGRQGQEGGYQQRPPGQQQGGHQQGRQGQEGGYQQRPPGQQQGGHEQGRQGQEGGYQQRPSGQQQGGHQQGRQGQEGGYQQRPSGQQQGGHQQGRQGQEGGYQQRPSGQQQGGHQQGRQGQEGGYQQRPPGQQPNQTQSQGQYQSRGPPQQQQAAPLPLPPQPAGSIKRGTIGKPGQVGINYLDLDLSKMPSVAYHYDVKIMPERPKKFYRQAFEQFRVDQLGGAVLAYDGKASCYSVDKLPLNSQNPEVTVTDRNGRTLRYTIEIKETGDSTIDLKSLTTYMNDRIFDKPMRAMQCVEVVLASPCHNKAIRVGRSFFKMSDPNNRHELDDGYEALVGLYQAFMLGDRPFLNVDISHKSFPISMPMIEYLERFSLKAKINNTTNLDYSRRFLEPFLRGINVVYTPPQSFQSAPRVYRVNGLSRAPASSETFEHDGKKVTIASYFHSRNYPLKFPQLHCLNVGSSIKSILLPIELCSIEEGQALNRKDGATQVANMIKYAATSTNVRKRKIMNLLQYFQHNLDPTISRFGIRIANDFIVVSTRVLSPPQVEYHSKRFTMVKNGSWRMDGMKFLEPKPKAHKCAVLYCDPRSGRKMNYTQLNDFGNLIISQGKAVNISLDSDVTYRPFTDDERSLDTIFADLKRSQHDLAIVIIPQFRISYDTIKQKAELQHGILTQCIKQFTVERKCNNQTIGNILLKINSKLNGINHKIKDDPRLPMMKNTMYIGADVTHPSPDQREIPSVVGVAASHDPYGASYNMQYRLQRGALEEIEDMFSITLEHLRVYKEYRNAYPDHIIYYRDGVSDGQFPKIKNEELRCIKQACDKVGCKPKICCVIVVKRHHTRFFPSGDVTTSNKFNNVDPGTVVDRTIVHPNEMQFFMVSHQAIQGTAKPTRYNVIENTGNLDIDLLQQLTYNLCHMFPRCNRSVSYPAPAYLAHLVAARGRVYLTGTNRFLDLKKEYAKRTIVPEFMKKNPMYFV
B6: Me31B (protein, UniProt P23128 1-459)
chain: MMTEKLNSGHTNLTSKGIINDLQIAGNTSDDMGWKSKLKLPPKDNRFKTTDVTDTRGNEFEEFCLKRELLMGIFEKGWERPSPIQEAAIPIALSGKDVLARAKNGTGKTGAYCIPVLEQIDPTKDYIQALVMVPTRELALQTSQICIELAKHLDIRVMVTTGGTILKDDILRIYQKVQLIIATPGRILDLMDKKVADMSHCRILVLDEADKLLSLDFQGMLDHVILKLPKDPQILLFSATFPLTVKNFMEKHLREPYEINLMEELTLKGVTQYYAFVQERQKVHCLNTLFSKLQINQSIIFCNSTQRVELLAKKITELGYCCYYIHAKMAQAHRNRVFHDFRQGLCRNLVCSDLFTRGIDVQAVNVVINFDFPRMAETYLHRIGRSGRFGHLGIAINLITYEDRFDLHRIEKELGTEIKPIPKVIDPALYVANVGASVGDTCNNSDLNNSANEEGNVSK
B7: CkIα (protein, UniProt P54367 1-337)
chain: MDKMRILKESRPEIIVGGKYRVIRKIGSGSFGDIYLGMSIQSGEEVAIKMESAHARHPQLLYEAKLYRILSGGVGFPRIRHHGKEKNFNTLVMDLLGPSLEDLFNFCTRHFTIKTVLMLVDQMIGRLEYIHLKCFIHRDIKPDNFLMGIGRHCNKLFLIDFGLAKKFRDPHTRHHIVYREDKNLTGTARYASINAHLGIEQSRRDDMESLGYVMMYFNRGVLPWQGMKANTKQQKYEKISEKKMSTPIEVLCKGSPAEFSMYLNYCRSLRFEEQPDYMYLRQLFRILFRTLNHQYDYIYDWTMLKQKTHQGQPNPAILLEQLDKDKEKQNGKPLIAD

In the first assay the target is GFP::Dicer-2^WT (Drosophila melanogaster) (UniProt A1ZAW0). Nature of the assay: affinity purification with mass spectrometry; second IP-MS, lysate of adult flies treated with 15 µg RNase A for 30 min at 4°C before the anti-GFP IP; GFP::Dicer-2^WT against Ctrl-GFP.
On to Lost (from UniProt Q9VN21), for which the binding result is “binds”.
For the molecule B1, the binding result is “binds”.

Another assay has the same target. Nature of the assay: affinity purification with mass spectrometry; anti-GFP beads (Miltenyi) on lysates of adult flies injected with TRIS (mock) or DCV (500 PFU), 2 or 3 days; 30 mM HEPES KOH pH 7.5, 50 mM NaCl, 2 mM Mg(OAc)2, 1% NP40 (washes 0.1% NP40), 4°C; LC-MS/MS, enrichment against Ctrl-WT + Ctrl-GFP; also the untreated half of the second IP-MS (against Ctrl-GFP); low stringency.
Take “Aats-glupro (from UniProt P28668 1-1714)”: the binding result is reported as “binds”.
The same measure, in the same setting: the same measure for Lost (from UniProt Q9VN21): “binds”; for Larp4B (from UniProt Q9I7T7 1-1531): “binds”; for Rm62 (from UniProt P19109 1-719): “binds”.

For the next assay the target is unchanged. The description is as above. The source holds these as a separate data set.
Consider B2, for which the binding entry is reported as “binds”.
In the case of B3, the binding result was “binds”.
In the case of B4, the binding entry is given as “binds”.
Still for that read-out and setting: next, B5: “binds”.
Still for that read-out and setting: the same measure for B1: “binds”; for B6: “binds”.
Still for that read-out and setting: the same measure for B7: “binds”.

Values taken from publication PMC12058146.
